According to patent US20230068687A1, “PROCESS FOR PREPARING A SOLID FORM OF BASIC AMINO ACID SALTS OF POLYUNSATURATED FATTY ACIDS” (SILICYCLE INC., priority 2020, published 2023):
At least one compound was matched to its structure with a doubt left.

Assays:
[1] = Stability examination of L-lysine salts stored in clear vials with closed lids at room temperature (Table 1); assay type: physicochemical; conditions: starting material
Experimental: The comparison of oxidative status of basic amino acid salts of PUFAs, starting material in ester form and fish oil in free acid form are assessed by measuring the PV and AV, then all the samples are subjected to the same oxidizing condition over a certain period of time, followed by the measuring PV and AV of the samples. The oxidizing conditions are selected from one of: 1) storage in closed containers at atmospheric condition, opened once daily for the first month, twice weekly for the second month, once weekly for the third month and twice a month up to 6 months; 2) storage in loosely closed containers exposed to air at 45° C. for 1 month.
(§1) Food Lab Analyzer: Among several techniques known in the art for determining the oxidative levels of a sample, CDR FoodLab® Junior analyzer is used herein for determining PV and AV. The procedures are described as below.
(§2) The solid product 0.5 g was dissolved in 2 mL of MeOH and HCl solution with the ratio of 1:10 (v/v). The mixture was stirred for 5 minutes, followed by the addition of 5 mL of water. The mixture was extracted with 3 mL of Hexane containing 100 ppm butylated hydroxytoluene (BHT). The organic layer was dried over MgSO4, filtrated and evaporated under reduced pressure at the temperature of 0-70° C. to get the fish oil in free acid form, which was evaluated with the CDR FoodLab® Junior analyzer to get anisidine and peroxide values using the Food Lab analyzer.
(§3) The molar ratio of EPA to L-lysine was 1:1. The mixture was stirred at atmospheric condition for 5 minutes to obtain a homogenous solution. 30 mL of ethanol was added to precipitate the L-lysine amino acid salt. […] About 4.5 g of EPA-Lys was stored in a 20 ml of clear vial with a diameter of 27 mm, which was placed with closed lids on the bench at room temperature for the stability examination for 90 days.
as §3, with “ratio of DHA to L-lysine” for “ratio of EPA to L-lysine”
The molar ratio of seal oil in free acid form to L-lysine was 1:1. The mixture was stirred at atmospheric condition for 5 minutes to obtain a homogenous solution. 35 mL of ethanol was added to precipitate the L-lysine amino acid salt.

[2] = Oxidative status (peroxide value, anisidine value) of starting materials and products as obtained, CDR FoodLab Junior analyzer; assay type: physicochemical; conditions: as obtained / as used, before storage
Experimental: The final product in powder form is isolated by evaporating said first and second organic solvents and water from the reaction mixture to recover said basic amino acid salts of PUFAs. Preferably, said evaporation step is carried under reduced pressure between about 0° C.-70° C. depending on the properties of the equipment used. […] The evaporation step requires said first/second organic solvents and water to be in a liquid form, thereby excluding the freeze-drying methods that require the solvents to be frozen. The oxidative status of the obtained final product is quantified by peroxide value (PV), anisidine value (AV) and Totox value. PV is a measure of the level of the primary oxidation products (lipid hydroperoxides) in the product, which is specified in milliequivalents O2 per kg of sample, while the AV is an unspecific measure of saturated and unsaturated carbonyl compounds. Totox is calculated by the equation Totox=2*PV+AV.
as §1, §2

| SMILES | AV [1] [A/g] | PV [1] [meq O2/Kg] | AV (anisidine value) [2] [A/g] | PV (peroxide value) [2] [meqO2/kg] |
| --- | --- | --- | --- | --- |
| CC/C=C\C/C=C\C/C=C\C/C=C\C/C=C\C/C=C\CCC(=O)O [DHA-OH, docosahexaenoic acid, reference compound] | >100 | >50 | > 100 | > 50 |
| CC/C=C\C/C=C\C/C=C\C/C=C\C/C=C\CCCC(=O)O [EPA-OH, eicosapentaenoic acid, reference compound] | >100 | >50 | > 100 | > 50 |
